For at least one compound, name, drawing or mass did not settle the structure.
Legend:
Type in all cases: in vivo
[1] = Chronic administration to male dietary-induced obese (DIO) Sprague-Dawley rats: body weight; settings: 10 mg/kg ip once daily for 21 days, vs vehicle
[2] = Oral glucose tolerance test in male DIO Sprague-Dawley rats; settings: 10 mg/kg ip daily, 2 g/kg glucose on Day-21, vs vehicle
[3] = Plasma insulin, triglycerides and FFA in male DIO Sprague-Dawley rats; settings: 10 mg/kg ip daily, chronic, vs vehicle
[4] = Fat depots analysis in male DIO Sprague-Dawley rats; settings: 10 mg/kg ip daily, significant for all depots except epididymal
[5] = Feeding study in female DIO Wistar rats (COMPOUND C): body weight; settings: female cafeteria-fed DIO Wistar rats; 30 mg/kg po once daily for 28 days; vs vehicle
[6] = Plasma insulin assay, female DIO Wistar rats (COMPOUND C); settings: 30 mg/kg po once daily for 28 days, vs vehicle
[7] = Carcass composition (water, fat, protein, ash), female DIO Wistar rats (COMPOUND C); settings: 30 mg/kg po once daily for 28 days, vs vehicle
Procedure: The experiment was performed on female Wistar rats (originally in the weight range 250-300g). Animals were maintained on a reverse phase light-dark cycle (lights off for 8 h from 09.30-17.30 h) during which time the room was illuminated by red light. Animals had free access to powdered high fat diet (VRF1 plus 20% lard), ground chocolate, ground peanuts and tap water at all times. The three different diets were contained in separate glass feeding jars with aluminium lids with a 3-4 cm hole cut in it to allow access to the food. Animals were housed in pairs for twelve weeks for the induction of obesity. Animals were then housed singly in polypropylene cages with wire grid floors to enable the food intake of each rat to be recorded. Polypropylene trays with cage pads were placed beneath each cage to detect any food spillage. Animals were accustomed to these new conditions (individual housing and the wire-grid floor cages) for at least 14 days before the start of the baseline readings. […]
Percentage fat in the freeze-dried sample was calculated as follows: % fat = [100 × (final cup weight-initial cup weight)]/sample weight [formula]
Percentage fat in the original sample was calculated using the % water as follows: % fat in original sample = % fat × [(100-%water)/100] […]

[8] = Chronic administration to growing male Wistar rats: body weight; settings: vs vehicle
[9] = Plasma total cholesterol and triglycerides in growing male Wistar rats; settings: vs vehicle
[10] = Olanzapine-induced weight-gain and hyperphagia in female Sprague-Dawley rats on high fat diet; settings: olanzapine 3 mg/kg, COMPOUND C 30 mg/kg, alone or combined, vs vehicle
[11] = Plasma NEFA assay, female DIO Wistar rats (COMPOUND A, COMPOUND B); settings: obese female Wistar rats
Procedure: The experiment was performed on female Wistar rats (originally in the weight range 250-300 g). The rats were housed in pairs in polypropylene cages with solid floors and sawdust bedding at a temperature of 21±4°C and 55±20% humidity. Animals were maintained on a reverse phase light-dark cycle (lights off for 8 h from 09.30-17.30 h) during which time the room was illuminated by red light. Animals had free access to powdered high fat diet (VRF1 plus 20% lard), ground chocolate, ground peanuts and tap water at all times. The three different diets were contained in separate glass feeding jars with aluminum lids with a 3-4 cm hole cut in it to allow access to the food. Animals were housed in pairs for twelve weeks for the induction of obesity. Animals were then housed singly in polypropylene cages with wire grid floors to enable the food intake of each rat to be recorded. Polypropylene trays with cage pads were placed beneath each cage to detect any food spillage. Animals were accustomed to these new conditions (individual housing and the wire-grid floor cages) for at least 14 days before the start of the baseline readings.
Approximately a week before the start of the study, animals were weighed (to the nearest 0.1 g using an electronic top-pan balance) and allocated into 3 weight-matched treatment groups, each containing 9-10 animals. […]
Non-esterified (or free) fatty acids (NEFA) were determined by modification of a commercial clinical analyser assay kit (Wako NEFA C ACS-ACOD method) to a 96-well format. […] After exactly 10 minutes, 150 µl of reagent B was added and the plate incubated for a further 10 minutes after which optical density at 540 nm was determined using a Molecular Devices VERSAmax tunable microplate reader. Optical density readings were then transferred to GraphPad Prism and values for plasma samples extrapolated from a linear regression fit to the standard curve. […]

[12] = Carcass composition (fat, water, protein, ash), female DIO Wistar rats (COMPOUND A, COMPOUND B); settings: obese female Wistar rats, vs vehicle
[13] = 30 mg/kg po once daily for 14 days
[14] = 10 and 30 mg/kg po once daily for 14 days
[15] = 10 mg/kg po once daily for 28 days
[16] = 30 mg/kg po once daily for 28 days
[17] = 10 and 30 mg/kg po once daily for 28 days

Compound: O=C(NN1CCCCC1)C1=NN(c2ccc(Cl)cc2Cl)C(c2ccc(Cl)cc2)C1 (racemic) [COMPOUND C, (rac)-N-piperidinyl-5-(4-chlorophenyl)-1-(2,4-dichlorophenyl)-4,5-dihydro-1H-pyrazole-3-carboxamide]
- body weights [1]: marked and sustained decrease in the body weights
- area under the curve (AUC) for the insulin excursion, oral glucose challenge [2]: significantly lower
- FFA levels [3]: statistically significantly (p < 0.05), reducing plasma trigyceride levels and FFA levels
- plasma insulin levels [3]: statistically significantly (p < 0.001) reducing plasma insulin levels
- plasma trigyceride levels [3]: statistically significantly (p < 0.05), reducing plasma trigyceride levels
- weights of the major visceral fat-pads, ie inguinal, epididymal, retroperitoneal and mesenterial [4]: large reductions
- body weights [5]: marked and sustained decrease in the body weights
- plasma insulin levels [6]: reducing plasma insulin levels
- total ash content [7]: did not significantly alter
- reductions in body weights at Day 14 [8, 13]: statistically significant p < 0.002
- body weights [8, 14]: marked and sustained decrease in the body weights
- reduction of plasma cholesterol levels at the higher dose [9, 13]: statistically significantly (p < 0.05)
- reduction of plasma triglyceride levels at the higher dose [9, 13]: statistically significantly (p < 0.05)
- plasma cholesterol levels [9, 14]: dose-dependently reduced plasma cholesterol levels
- plasma triglyceride levels [9, 14]: dose-dependently improved the lipid profiles of growing, Sprague-Dawley rats by reducing plasma triglyceride levels
- body weights during treatment ([10]; once daily po for 14 days): gradual decrease in body weight
- daily food intake ([10]; once daily po for 14 days): markedly reduced their food intakes
- mean weight on Day 15 ([10]; once daily po for 14 days): statistically (p < 0.02) lower
- cumulative intake of food over the first week of the experiment ([10]; once daily po): statistically lower (p < 0.01)

Compound: O=C(NN1CCCCC1)C1=NN(c2ccc(Cl)cc2Cl)[C@@H](c2ccc(Cl)cc2)C1 [COMPOUND A, (R)-N-piperidinyl-5-(4-chlorophenyl)-1-(2,4-dichlorophenyl)-4,5-dihydro-1H-pyrazole-3-carboxamide]
- plasma NEFA levels, effect compared to the vehicle-treated control group [11, 15]: neither dose of this compound had any effect
- decrease of plasma NEFA levels compared to the vehicle-treated control group [11, 16]: neither dose of this compound had any effect
- total water content of the carcasses (weight per rat) [12, 15]: did not significantly alter
- total water content of the carcasses (weight per rat) [12, 16]: slightly, but significantly, decreased total water
- total ash content of the carcasses (weight per rat) [12, 17]: did not significantly alter
- total protein content of the carcasses (weight per rat) [12, 17]: did not significantly alter
